Experimental data published in publication doi:10.1101/2024.12.16.628806.
These are yes or no findings as the source states them, for the method shown. Binding seen in cells or lysates may run through a third protein. Some entries that bind do so weakly or less than the wild type. For part of these data: Where a sequence is shown, tags or fusion partners need not be part of it.

Amino acid sequences for entries named in this document (tags omitted).
UniProt P49841: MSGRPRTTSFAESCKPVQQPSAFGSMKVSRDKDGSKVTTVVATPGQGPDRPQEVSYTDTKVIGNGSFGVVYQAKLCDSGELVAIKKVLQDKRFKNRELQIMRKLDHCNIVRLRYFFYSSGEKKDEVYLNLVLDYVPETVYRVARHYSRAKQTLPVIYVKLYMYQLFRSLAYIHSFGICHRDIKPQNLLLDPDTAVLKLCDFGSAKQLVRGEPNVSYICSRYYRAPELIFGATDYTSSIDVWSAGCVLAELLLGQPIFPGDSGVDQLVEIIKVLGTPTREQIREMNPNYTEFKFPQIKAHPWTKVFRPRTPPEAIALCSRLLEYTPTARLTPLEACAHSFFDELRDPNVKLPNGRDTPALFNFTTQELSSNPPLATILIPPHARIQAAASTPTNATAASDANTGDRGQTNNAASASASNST

Assays:
Test in all cases: co-IP
[1] = biological target: T1, eGFP-IQCG (eGFP-tagged human IQ Motif Containing G) (human) (UniProt Q9H095)
T1 sequence: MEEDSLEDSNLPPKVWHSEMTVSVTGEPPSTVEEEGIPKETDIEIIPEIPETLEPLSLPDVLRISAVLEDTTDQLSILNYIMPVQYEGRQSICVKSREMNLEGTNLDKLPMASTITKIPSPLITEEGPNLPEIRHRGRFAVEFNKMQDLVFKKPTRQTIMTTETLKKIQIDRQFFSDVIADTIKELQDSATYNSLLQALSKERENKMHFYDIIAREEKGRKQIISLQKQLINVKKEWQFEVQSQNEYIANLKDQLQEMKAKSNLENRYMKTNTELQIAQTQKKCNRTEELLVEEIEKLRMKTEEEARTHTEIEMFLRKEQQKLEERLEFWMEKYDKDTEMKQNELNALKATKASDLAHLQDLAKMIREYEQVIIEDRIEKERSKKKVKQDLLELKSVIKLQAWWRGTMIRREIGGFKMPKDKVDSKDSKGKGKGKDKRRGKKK

[2] = biological target: T2, eGFP-IQCG N2 region fragment (human) (UniProt Q9H095)
T2 sequence: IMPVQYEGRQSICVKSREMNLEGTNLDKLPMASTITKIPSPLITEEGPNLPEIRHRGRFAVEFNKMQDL

[3] = biological target: eGFP-GSK3β (UniProt P49841)

Row | Molecule | binding [1] | binding [2] | binding [3]
1 | glycogen synthase kinase-3β (GSK3β) (from UniProt P49841 1-420) | binds | binds | –
2 | IQCG (detected with anti-IQCG antibody) (protein, UniProt Q9H095 1-443) MEEDSLEDSNLPPKVWHSEMTVSVTGEPPSTVEEEGIPKETDIEIIPEIPETLEPLSLPDVLRISAVLEDTTDQLSILNYIMPVQYEGRQSICVKSREMNLEGTNLDKLPMASTITKIPSPLITEEGPNLPEIRHRGRFAVEFNKMQDLVFKKPTRQTIMTTETLKKIQIDRQFFSDVIADTIKELQDSATYNSLLQALSKERENKMHFYDIIAREEKGRKQIISLQKQLINVKKEWQFEVQSQNEYIANLKDQLQEMKAKSNLENRYMKTNTELQIAQTQKKCNRTEELLVEEIEKLRMKTEEEARTHTEIEMFLRKEQQKLEERLEFWMEKYDKDTEMKQNELNALKATKASDLAHLQDLAKMIREYEQVIIEDRIEKERSKKKVKQDLLELKSVIKLQAWWRGTMIRREIGGFKMPKDKVDSKDSKGKGKGKDKRRGKKK | – | – | binds
